Test results published in paper PMC6135609.
For at least one entry, the source does not settle the construct or the ends of the probe.

The chains behind the UniProt entries cited, without tags or fusion partners.
UniProt P09874, whole entry: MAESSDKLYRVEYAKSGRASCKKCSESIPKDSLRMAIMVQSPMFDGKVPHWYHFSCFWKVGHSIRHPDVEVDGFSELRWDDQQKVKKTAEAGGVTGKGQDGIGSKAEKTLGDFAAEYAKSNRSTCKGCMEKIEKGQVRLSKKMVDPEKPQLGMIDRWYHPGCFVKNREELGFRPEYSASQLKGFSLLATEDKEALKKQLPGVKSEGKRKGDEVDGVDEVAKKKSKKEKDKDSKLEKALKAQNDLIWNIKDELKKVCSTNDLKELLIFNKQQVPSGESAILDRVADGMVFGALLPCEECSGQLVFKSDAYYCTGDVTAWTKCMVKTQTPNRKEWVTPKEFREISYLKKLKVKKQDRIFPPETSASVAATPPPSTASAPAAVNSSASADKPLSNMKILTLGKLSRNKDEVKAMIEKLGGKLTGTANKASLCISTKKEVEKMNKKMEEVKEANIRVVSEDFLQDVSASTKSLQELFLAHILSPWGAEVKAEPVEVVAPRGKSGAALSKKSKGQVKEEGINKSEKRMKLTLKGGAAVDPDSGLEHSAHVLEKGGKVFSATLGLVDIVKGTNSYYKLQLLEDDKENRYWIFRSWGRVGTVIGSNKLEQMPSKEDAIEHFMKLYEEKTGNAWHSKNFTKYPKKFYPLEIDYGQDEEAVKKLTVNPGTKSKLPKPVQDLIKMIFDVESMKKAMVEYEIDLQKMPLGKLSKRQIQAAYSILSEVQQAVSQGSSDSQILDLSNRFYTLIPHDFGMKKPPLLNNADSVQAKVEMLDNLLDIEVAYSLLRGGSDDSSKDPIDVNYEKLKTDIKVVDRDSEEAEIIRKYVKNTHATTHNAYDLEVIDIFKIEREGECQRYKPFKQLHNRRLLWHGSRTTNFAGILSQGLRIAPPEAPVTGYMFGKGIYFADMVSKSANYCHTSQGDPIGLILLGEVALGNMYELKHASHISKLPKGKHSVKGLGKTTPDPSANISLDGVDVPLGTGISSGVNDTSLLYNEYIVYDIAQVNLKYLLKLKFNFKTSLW
UniProt P09874, whole entry W589A: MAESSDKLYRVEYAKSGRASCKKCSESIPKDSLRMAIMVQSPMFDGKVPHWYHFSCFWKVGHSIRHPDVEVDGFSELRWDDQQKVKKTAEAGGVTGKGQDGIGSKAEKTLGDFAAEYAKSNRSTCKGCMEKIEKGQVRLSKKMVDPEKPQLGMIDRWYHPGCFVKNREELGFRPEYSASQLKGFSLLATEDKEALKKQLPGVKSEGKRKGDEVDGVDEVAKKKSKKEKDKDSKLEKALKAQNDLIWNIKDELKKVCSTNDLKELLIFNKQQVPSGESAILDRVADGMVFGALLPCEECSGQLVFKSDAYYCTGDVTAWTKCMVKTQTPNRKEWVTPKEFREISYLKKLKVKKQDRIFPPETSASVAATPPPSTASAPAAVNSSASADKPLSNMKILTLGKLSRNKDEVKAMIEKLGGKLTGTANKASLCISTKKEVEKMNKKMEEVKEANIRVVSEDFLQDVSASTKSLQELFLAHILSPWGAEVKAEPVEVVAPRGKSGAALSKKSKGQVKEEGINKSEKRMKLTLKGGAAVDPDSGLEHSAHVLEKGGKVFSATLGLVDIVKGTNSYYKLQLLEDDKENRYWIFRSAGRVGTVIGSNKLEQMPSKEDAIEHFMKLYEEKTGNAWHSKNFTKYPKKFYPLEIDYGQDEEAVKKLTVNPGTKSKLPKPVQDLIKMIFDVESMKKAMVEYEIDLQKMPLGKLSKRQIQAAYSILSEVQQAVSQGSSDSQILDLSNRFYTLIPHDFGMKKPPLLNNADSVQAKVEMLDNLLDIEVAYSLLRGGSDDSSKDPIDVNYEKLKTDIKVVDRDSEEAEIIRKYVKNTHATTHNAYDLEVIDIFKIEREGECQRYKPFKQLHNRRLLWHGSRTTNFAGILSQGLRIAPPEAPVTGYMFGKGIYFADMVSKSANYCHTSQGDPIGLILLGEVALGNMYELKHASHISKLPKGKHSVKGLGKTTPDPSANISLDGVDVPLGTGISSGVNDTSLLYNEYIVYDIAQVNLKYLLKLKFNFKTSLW

Experiments:
[1] = biological target: PARP1 WT (human) (UniProt P09874); experiment: stopped-flow fluorescence anisotropy competition; details: second DNA binding to PARP1 pre-bound to p18mer* (ternary complex), k2 0.043 nM-1 s-1; 5'-phosphate; 50 mM Tris-HCl pH 7.5, 50 mM NaCl, 1 mM MgCl2, 0.1 mM EDTA, 0.01% IGEPAL, 20 C; recombinant protein; residues 1-1014
[2] = biological target: PARP1 W589A (human) (UniProt P09874); experiment: stopped-flow fluorescence anisotropy; details: apparent kinetic Kd, k-1 20 s-1; 5'-phosphate; 50 mM Tris-HCl pH 7.5, 50 mM NaCl, 1 mM MgCl2, 0.1 mM EDTA, 0.01% IGEPAL, 20 C; recombinant protein; residues 1-1014

Sequence | Kd [1] | Kd [2]
GGGTTGCGGCCGCTTGGG (double strand) [p18mer (unlabeled)] | 2600 nM | 
GGGTTGCGGCCGCTTGGG (double strand) [p18mer* (labeled DSB model)] |  | 5 nM
